Results deposited as PubChem BioAssay AID1259254 (NCATS, 2017)
Shown is a random part of about 59,000 reagents tested. About 1,550 of all reagents (2.6%) count as active. 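G2 share is only a proxy for re-replication; each gene was hit by three separate siRNAs, and active genes were retested.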 Raw values are not corrected between plates. The numbers tell different reagents against one gene apart. Reagent sequences are not shown. Not stated in the record: the amount of reagent.

Assay: 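Finding genes that stop cells copying their DNA twice in one cycle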 (primary screen)
System: human HCT116 colorectal cancer cells
Reagent: single siRNA against human genes
Duration: 3 days
Measured: 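Nuclei stained with Hoechst and imaged; cell-cycle phase assigned by DNA content; G2 share scaled per plate, non-targeting siRNA 0%, GMNN siRNA 100%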
Reading the numbers: G2 robust z-score and G2 cells, % of GMNN control: higher = more G2 cells, more excess DNA replication; raw share of cells in G2: higher = larger share of cells with G2 DNA content
Rule for the call: 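An siRNA counts as active if its G2 robust z-score lies at least 5 MADs above the screen median; here such calls match roughly 38% of GMNN control or more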

Target gene | siRNA no. | G2 robust z-score | G2 cells, % of GMNN control | raw share of cells in G2 (%) | Call
ZDHHC9 | 1 | 1.3 | 12.1 | 8.45 | inactive
ZDHHC9 | 2 | -0.534 | -0.79 | 5.59 | inactive
ZDHHC9 | 3 | 0.0514 | 3.33 | 5.47 | inactive
SMIM10L2A | 1 | 2.7 | 22 | 11.8 | inactive
SMIM10L2A | 2 | 0.323 | 5.24 | 5.6 | inactive
SMIM10L2A | 3 | 0.362 | 5.51 | 7.08 | inactive
HRAS | 1 | -0.0275 | 2.77 | 6.74 | inactive
HRAS | 2 | 0.0655 | 3.43 | 6.29 | inactive
HRAS | 3 | 1.22 | 11.5 | 8.43 | inactive
IL21 | 1 | 2.52 | 20.7 | 12.5 | inactive
IL21 | 2 | 3.57 | 28.1 | 17.9 | inactive
IL21 | 3 | -0.245 | 1.24 | 3.42 | inactive
GPR101 | 1 | 0.744 | 8.2 | 8.78 | inactive
GPR101 | 2 | -0.785 | -2.56 | 3.62 | inactive
GPR101 | 3 | -0.831 | -2.88 | 2.39 | inactive
GCLM | 1 | 6.33 | 47.5 | 22.5 | active
GCLM | 2 | -0.868 | -3.14 | 4.07 | inactive
GCLM | 3 | 1.78 | 15.5 | 9.19 | inactive
OR6Q1 | 1 | -0.43 | -0.0586 | 3.56 | inactive
OR6Q1 | 2 | -0.377 | 0.317 | 3.24 | inactive
OR6Q1 | 3 | -0.651 | -1.61 | 2.68 | inactive
GDNF | 1 | -0.0877 | 2.35 | 4.44 | inactive
GDNF | 2 | 1.04 | 10.3 | 10.1 | inactive
GDNF | 3 | 0.728 | 8.09 | 7.05 | inactive
CHTF8 | 1 | -1.19 | -5.41 | 1.67 | inactive
CHTF8 | 2 | 0.901 | 9.31 | 8.19 | inactive
CHTF8 | 3 | -0.462 | -0.282 | 3.1 | inactive
RCAN2 | 1 | -1.38 | -6.73 | 3.82 | inactive
RCAN2 | 2 | -0.89 | -3.29 | 4.26 | inactive
RCAN2 | 3 | -0.808 | -2.72 | 2.96 | inactive
CCDC89 | 1 | 2.67 | 21.8 | 11.5 | inactive
CCDC89 | 2 | 0.787 | 8.5 | 6.04 | inactive
CCDC89 | 3 | -1.17 | -5.26 | 1.52 | inactive
SRGAP2C | 1 | -0.104 | 2.23 | 4.3 | inactive
SRGAP2C | 2 | -0.742 | -2.26 | 2.34 | inactive
SRGAP2C | 3 | 0.724 | 8.06 | 5.17 | inactive
SGSM2 | 1 | -1.24 | -5.78 | 2.72 | inactive
SGSM2 | 2 | 1.82 | 15.8 | 10.5 | inactive
SGSM2 | 3 | 1.04 | 10.3 | 7.15 | inactive
DPPA2 | 1 | -0.753 | -2.33 | 3.05 | inactive
DPPA2 | 2 | -0.512 | -0.633 | 2.72 | inactive
DPPA2 | 3 | -0.826 | -2.85 | 2.08 | inactive
DESI2 | 1 | -0.467 | -0.316 | 3.73 | inactive
DESI2 | 2 | 2.83 | 22.9 | 13.2 | inactive
DESI2 | 3 | 0.195 | 4.34 | 4.62 | inactive
RIF1 | 1 | -0.114 | 2.16 | 5.36 | inactive
RIF1 | 2 | -0.695 | -1.92 | 3.34 | inactive
RIF1 | 3 | -0.661 | -1.68 | 2.6 | inactive
